# Reference: PubChem BioAssay (NCATS)
# Sequences of proteins named here, by UniProt entry; tags and fusion partners are left off. A change or cut given only in a name is not applied to a line headed by its entry.
# UniProt P27695, whole entry, looked up: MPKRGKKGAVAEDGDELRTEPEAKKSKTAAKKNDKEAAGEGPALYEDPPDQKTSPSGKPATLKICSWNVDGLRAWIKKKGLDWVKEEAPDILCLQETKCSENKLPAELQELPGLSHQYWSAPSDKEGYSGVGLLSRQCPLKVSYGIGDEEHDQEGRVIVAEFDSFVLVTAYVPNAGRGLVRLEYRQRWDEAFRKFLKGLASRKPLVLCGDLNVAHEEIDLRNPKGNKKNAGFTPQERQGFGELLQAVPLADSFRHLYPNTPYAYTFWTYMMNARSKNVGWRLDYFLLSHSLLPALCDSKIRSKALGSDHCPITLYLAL
# UniProt Q9NUW8, whole entry, looked up: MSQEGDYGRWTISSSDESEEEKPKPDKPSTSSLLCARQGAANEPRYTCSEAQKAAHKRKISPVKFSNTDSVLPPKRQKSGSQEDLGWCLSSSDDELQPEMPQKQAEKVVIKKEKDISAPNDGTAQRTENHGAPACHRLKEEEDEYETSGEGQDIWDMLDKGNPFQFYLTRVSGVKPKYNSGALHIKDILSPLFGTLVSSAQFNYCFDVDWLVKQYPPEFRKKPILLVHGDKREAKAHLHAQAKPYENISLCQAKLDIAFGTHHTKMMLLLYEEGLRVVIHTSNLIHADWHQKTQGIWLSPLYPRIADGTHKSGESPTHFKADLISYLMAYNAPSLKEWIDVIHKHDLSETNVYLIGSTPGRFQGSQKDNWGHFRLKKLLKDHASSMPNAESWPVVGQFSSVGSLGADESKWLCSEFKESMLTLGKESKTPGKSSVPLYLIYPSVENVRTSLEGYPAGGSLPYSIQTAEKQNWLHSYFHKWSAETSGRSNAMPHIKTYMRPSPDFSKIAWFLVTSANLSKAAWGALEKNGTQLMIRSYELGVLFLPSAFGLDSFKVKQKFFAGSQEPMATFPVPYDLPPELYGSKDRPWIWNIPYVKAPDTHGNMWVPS
# UniProt Q9UNA4: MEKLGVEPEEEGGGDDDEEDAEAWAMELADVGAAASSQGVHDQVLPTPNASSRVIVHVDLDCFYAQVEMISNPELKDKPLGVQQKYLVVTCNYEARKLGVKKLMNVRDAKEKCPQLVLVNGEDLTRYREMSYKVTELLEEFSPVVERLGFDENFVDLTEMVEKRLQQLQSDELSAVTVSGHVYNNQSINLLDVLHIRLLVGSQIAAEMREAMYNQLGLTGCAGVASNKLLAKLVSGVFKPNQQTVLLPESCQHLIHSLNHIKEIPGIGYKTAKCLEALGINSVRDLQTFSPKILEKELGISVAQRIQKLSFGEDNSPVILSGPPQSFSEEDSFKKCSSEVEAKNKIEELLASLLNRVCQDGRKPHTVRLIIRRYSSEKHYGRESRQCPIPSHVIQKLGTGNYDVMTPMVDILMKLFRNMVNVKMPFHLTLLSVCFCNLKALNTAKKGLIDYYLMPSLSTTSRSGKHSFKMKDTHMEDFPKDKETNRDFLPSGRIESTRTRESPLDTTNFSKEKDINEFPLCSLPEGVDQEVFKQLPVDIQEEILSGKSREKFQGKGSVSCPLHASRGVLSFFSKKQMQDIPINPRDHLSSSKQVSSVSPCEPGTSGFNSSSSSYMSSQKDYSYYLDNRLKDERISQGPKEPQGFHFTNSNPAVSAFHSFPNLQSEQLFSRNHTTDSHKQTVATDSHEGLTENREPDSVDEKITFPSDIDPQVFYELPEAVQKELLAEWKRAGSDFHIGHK
# UniProt Q9Y253: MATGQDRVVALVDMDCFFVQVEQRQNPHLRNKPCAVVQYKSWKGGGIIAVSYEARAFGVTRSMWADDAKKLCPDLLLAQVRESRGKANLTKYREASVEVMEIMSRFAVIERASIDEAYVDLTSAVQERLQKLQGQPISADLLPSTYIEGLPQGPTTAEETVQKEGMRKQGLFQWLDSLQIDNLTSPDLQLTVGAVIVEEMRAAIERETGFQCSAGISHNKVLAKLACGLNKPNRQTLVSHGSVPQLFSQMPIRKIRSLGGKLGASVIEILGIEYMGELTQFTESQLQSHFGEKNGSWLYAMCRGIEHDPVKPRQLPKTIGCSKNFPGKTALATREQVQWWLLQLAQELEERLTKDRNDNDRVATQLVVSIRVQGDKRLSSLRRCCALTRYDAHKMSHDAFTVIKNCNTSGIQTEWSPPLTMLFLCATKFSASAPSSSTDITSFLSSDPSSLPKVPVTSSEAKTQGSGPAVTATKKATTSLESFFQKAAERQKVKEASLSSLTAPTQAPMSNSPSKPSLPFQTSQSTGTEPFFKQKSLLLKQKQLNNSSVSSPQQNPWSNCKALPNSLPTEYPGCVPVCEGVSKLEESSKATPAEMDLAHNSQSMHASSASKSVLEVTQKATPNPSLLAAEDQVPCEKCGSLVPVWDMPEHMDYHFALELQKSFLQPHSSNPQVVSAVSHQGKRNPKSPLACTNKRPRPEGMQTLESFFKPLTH
# UniProt O94782: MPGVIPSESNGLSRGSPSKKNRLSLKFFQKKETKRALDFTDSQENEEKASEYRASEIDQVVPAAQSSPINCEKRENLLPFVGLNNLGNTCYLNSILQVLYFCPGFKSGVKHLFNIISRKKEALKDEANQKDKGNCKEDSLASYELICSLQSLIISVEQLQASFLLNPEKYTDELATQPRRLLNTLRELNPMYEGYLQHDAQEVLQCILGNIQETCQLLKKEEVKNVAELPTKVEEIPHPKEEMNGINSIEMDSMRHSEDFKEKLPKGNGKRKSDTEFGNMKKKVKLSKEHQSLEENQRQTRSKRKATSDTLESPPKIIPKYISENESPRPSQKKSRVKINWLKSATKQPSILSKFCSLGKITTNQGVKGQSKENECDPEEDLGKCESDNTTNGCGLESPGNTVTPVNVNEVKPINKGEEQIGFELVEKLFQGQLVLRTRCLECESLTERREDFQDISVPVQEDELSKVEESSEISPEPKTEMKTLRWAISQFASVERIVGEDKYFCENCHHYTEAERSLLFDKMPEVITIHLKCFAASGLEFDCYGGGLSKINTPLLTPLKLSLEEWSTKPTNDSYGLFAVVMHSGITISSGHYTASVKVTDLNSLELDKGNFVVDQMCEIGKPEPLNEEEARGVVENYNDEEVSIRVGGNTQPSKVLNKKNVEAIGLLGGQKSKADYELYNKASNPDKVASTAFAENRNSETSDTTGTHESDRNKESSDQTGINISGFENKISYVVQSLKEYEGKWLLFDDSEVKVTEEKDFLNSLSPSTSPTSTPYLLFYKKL
# Inconclusive means that the source gave no clear call. Such entries were picked first, then a sample of the others. For some assays here: Potencies beside an inconclusive call are fits to weak or partial responses and may not hold up. Active and inactive are the calls of the source. Unless noted, the call rests on the fitted dose curve; in most records, active means well fitted curve in the direction sought with a large enough effect; inconclusive means small, poorly fitted or top-dose-only effect, or another doubt; inactive means no such curve, though single readings can be large; an effect the other way counts as inactive or inconclusive.
# What was measured:
# [1] = Counterscreen for APE1 Inhibitors: Fluorescent Dye Displacement Assay (AID 2564);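 further: loss of thiazole orange fluorescence as the dye is displaced from duplex DNA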; further: potency means the concentration at half of the fitted maximal effect;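 on activity change, negative = inhibition: 0% = ThO with dsDNA and no compound and -100% = ThO without dsDNA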
# Procedure, shortened: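 Thiazole Orange (250 nM) bound to 50 nM TAMRA-labelled dsDNA with tetrahydrofuran abasic site; displacement by DNA-binding compounds lowers fluorescence. Buffer 50 mM Tris-HCl pH 7.5, 50 mM NaCl, 2 mM MgCl2, 0.01% Tween-20; endpoint read at 480/540 nm.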
# [2] = target: DNA repair nuclease/redox regulator APEX1 (Homo sapiens) (UniProt P27695); experiment: Confirmation qHTS Assay for Inhibitors of the Human Apurinic/apyrimidinic Endonuclease 1 (APE1) (AID 2572); further: nearly all actives have a fitted effect of over 30% in size; further: potency means the concentration at half of the fitted maximal effect;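 on activity change, negative = inhibition: fluorescence gain from purified APE1 cutting a TAMRA/BHQ-2 THF abasic duplex; on the % scale 0 is the no-effect control and ±100 the full control effect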
# Procedure, shortened: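 Enzyme preincubated 15 min at room temperature with compound; reaction started with 50 nM final double-stranded THF abasic-site substrate (5'-TAMRA, 3'-BHQ-2). Fluorescence read kinetically (525/598 nm); third-minus-first read difference gives reaction progress.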
# [3] = target: DNA repair nuclease/redox regulator APEX1 (Homo sapiens) (UniProt P27695); experiment: qHTS FP-Based Assay for Inhibitors of the Human Apurinic/apyrimidinic Endonuclease 1 (APE1) (AID 2573); further: potency means the concentration at half of the fitted maximal effect
# [4] = target: Tyrosyl-DNA phosphodiesterase 1 (Homo sapiens) (UniProt Q9NUW8); experiment: Confirmation Assay for Inhibitors of Tyrosyl-DNA Phosphodiesterase (TDP1) (AID 489007); details: recombinant human TDP1 enzymatic activity, dose-response; further: potency means the concentration at half of the fitted maximal effect; nearly all actives have a fitted effect of over 40% in size
# Procedure, shortened: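 Recombinant human Tdp1 (1 nM final), expressed in E. coli, preincubated 15 min with compound. Then 15 nM 5'-biotin/3'-phosphotyrosine-FITC DNA substrate added for 5 min at room temperature. AlphaScreen beads (10 ug/ml) added for 10 min; cleavage gives signal loss.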
# [5] = target: DNA polymerase iota (Homo sapiens) (UniProt Q9UNA4); experiment: qHTS for Inhibitors of Polymerase Iota: Confirmatory Assay for Cherry-picked Compounds (AID 720496); details: Pol iota primer extension, TAMRA/BHQ fluorescence; further: potency means the concentration at half of the fitted maximal effect
# Procedure, shortened: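 Human Pol iota (10 nM) was preincubated 15 min at room temperature with compound, then started with 50 nM TAMRA/BHQ-2 quenched primer-template substrate. Fluorescence (ex 525/em 598 nm) was read at 0 and 10 min.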
# [6] = target: DNA polymerase eta (Homo sapiens) (UniProt Q9Y253); experiment: qHTS for Inhibitors of Polymerase Eta: Confirmatory Assay for Cherry-picked Compounds (AID 720502); details: Pol eta primer extension, TAMRA/BHQ fluorescence, 10 min; further: potency means the concentration at half of the fitted maximal effect
# Procedure, shortened: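 Human Pol eta (10 nM) was preincubated with compounds for 15 min at room temperature before adding 50 nM (final) DNA substrate: primer plus TAMRA reporter strand annealed to a BHQ-2-labeled template. Fluorescence (ex 525/em 598 nm) was read at 0 and 10 min.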
# [7] = qHTS for Inhibitors of WRN Helicase: Thiazole Orange DNA Binding Counterscreen (AID 720499);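 further: drop in dye fluorescence marks compound binding to DNA; potency means the concentration at half of the fitted maximal effect; nearly all actives have a fitted effect of over 60% in size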
# Procedure, shortened: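 After pintool transfer of compounds into a thiazole orange/DNA mixture (100 nM and 50 nM respectively) and 15 min at room temperature, plates were imaged for fluorescence at 530 nm emission, 480 nm excitation.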
# [8] = target: Ubiquitin carboxyl-terminal hydrolase 1 (Homo sapiens) (UniProt O94782); experiment: Inhibitors of USP1/UAF1: Pilot qHTS (AID 504865); further: potency means the concentration at half of the fitted maximal effect; nearly all actives have a fitted effect of over 35% in size
# Procedure, shortened: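 Kinetic fluorescence assay: 1nM USP1/UAF1, 15 min compound preincubation, then 150nM Ub-Rho; 480/540 nm.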
# [9] = NFAT Signaling Pathway (AID 444; active means well fitted curve in either direction with a large enough effect, not every such curve was filed as active; inconclusive means small, poorly fitted or top-dose-only effect, or another doubt;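 further: carbachol stimulus at about its EC50 of 1 µM final; on the % scale 0 is the no-effect control and ±100 the full control effect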); details: Jurkat NFAT-bla M1, carbachol, beta-lactamase ratio, 5 h; at 17.2 µM (top of the series) unless noted
# Procedure, shortened: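 Jurkat cells with NFAT-driven β-lactamase reporter and co-expressed M1 receptor, stimulated with carbachol (final 1 uM, ~EC50), compound titration, 5 h at 37 °C. CCF4 loaded 1 h at RT; 460/530 nm ratio gave %activity and AC50.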
# [10] = qHTS Assay for Identification of Small Molecule Agonists for Hypoxia Response Element Signaling Pathway (AID 914; active means well fitted activation curve with a large enough effect in the signal ratio, with a control signal flat, not every such curve was filed as active; inconclusive means small, poorly fitted or top-dose-only effect, or effect the other way, or a change in a side signal; the % refers to the signal ratio; further: potency means the concentration at half of the fitted maximal effect); details: ME-180 (cervical carcinoma) HRE-bla reporter, beta-lactamase ratio, CoCl2, 17 h; activation: active compounds read high
# Procedure, shortened: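 HRE-bla ME-180 assay for agonist-like enhancement of an EC50 CoCl2 stimulus: 17 h at 37 degrees Celsius, CCF4 for 2.5 h, ratiometric 460/530 nm signal converted to %Activity and fitted to AC50.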
compound,measurement,setting,value
O=C(Cc1csc(N2CCOCC2)n1)N/N=C/c1ccc(O)c(O)c1O,Potency,[1],"inconclusive: 15.8 µM [inhibitor, partial curve, poor fit]"
same,Potency,[2],"inconclusive: 0.0355 µM [inhibitor, full curve, poor fit]"
Cn1c(SCC(=O)N/N=C/C=C/c2ccco2)nc2ccccc21,Potency,[1],"inconclusive: 15.8 µM [inhibitor, single point]"
same,Potency,[2],"inconclusive: 25.1 µM [inhibitor, partial curve, poor fit]"
CCOC(=O)CNC(=O)CSc1nnc(-c2ccco2)n1Cc1ccco1,Potency,[1],"inconclusive: 7.94 µM [inhibitor, full curve, poor fit]"
same,Potency,[2],inactive
CCC1=NNc2cccc3c(OC)ccc1c23,Potency,[1],"inconclusive: 1.12 µM [inhibitor, full curve, poor fit]"
same,Potency,[2],inactive
O=C(Nc1nc(-c2ccco2)c(-c2ccco2)s1)C1CC(=O)N(c2ccc3c(c2)OCCO3)C1 (stereo unspecified),Potency,[1],active: 11.2 µM
same,Potency,[2],"inconclusive: 12.6 µM [inhibitor, partial curve, poor fit]"
CC1(C)CC(=O)C=C(NCc2ccccc2)C1,Potency,[1],inactive
same,Potency,[2],"inconclusive: 0.794 µM [inhibitor, partial curve, poor fit]"
O=C(O)c1ccc(-n2cccc2/C=C2/NC(=O)N(c3cccc(Cl)c3)C2=O)cc1,Potency,[1],"inconclusive: 15.8 µM [inhibitor, single point]"
same,Potency,[2],active: 12.6 µM
same,Potency,[3],active: 11.2 µM
same,Potency,[4],"inconclusive: 1.78 µM [inhibitor, full curve]"
O=C1CCCC2=C1C(c1ccc(O)c(O)c1)Nc1ccc3ncccc3c12 (stereo unspecified),Potency,[1],"inconclusive: 17.8 µM [inhibitor, partial curve]"
same,Potency,[2],"inconclusive: 15.8 µM [inhibitor, partial curve]"
same,Potency,[5],"inconclusive: 75.2 µM [inhibitor, partial curve]"
O=C(c1ccc2nc(-c3ccco3)c(-c3ccco3)nc2c1)N1CCN(c2ncccn2)CC1,Potency,[1],"inconclusive: 12.6 µM [inhibitor, partial curve]"
same,Potency,[2],"inconclusive: 12.6 µM [inhibitor, partial curve]"
same,Potency,[3],inactive
same,Potency,[6],"inconclusive: 84.9 µM [inhibitor, single point]"
O=C(Cn1c(=O)n(Cc2ccco2)c(=O)c2c3c(sc21)CCCCC3)c1ccccc1,Potency,[1],"inconclusive: 11.2 µM [inhibitor, partial curve, poor fit]"
same,Potency,[3],inactive
Nc1ccc(Nc2ccccc2)c(S(=O)(=O)O)c1,Potency,[1],"inconclusive: 20 µM [inhibitor, single point]"
same,Potency,[2],"inconclusive: 28.2 µM [inhibitor, partial curve, poor fit]"
same,Potency,[3],"inconclusive: 7.94 µM [inhibitor, partial curve, poor fit]"
same,Potency,[4],active: 7.94 µM
COc1ccc(Br)cc1/C=c1\sc2nc(-c3ccco3)nn2c1=O,Potency,[1],"inconclusive: 3.98 µM [inhibitor, full curve]"
same,Potency,[2],"inconclusive: 12.6 µM [inhibitor, partial curve, poor fit]"
same,Potency,[7],active: 19.2 µM
same,Potency,[6],active: 30.1 µM
CCOc1cc(/C=C2\C(=O)N(c3ccc(C(N)=O)cc3)N=C2C)ccc1OC(=O)c1cccs1,Potency,[1],"inconclusive: 6.31 µM [inhibitor, partial curve, poor fit]"
same,Potency,[3],inactive
CC(=O)OC1CC2C(C)(C)C(O)CC[C@@]2(C)C2CC[C@@]3(C)C(c4ccoc4)OC(=O)C4OC43[C@]12C (stereo partly specified),Potency,[1],inactive
same,Potency,[2],"inconclusive: 3.16 µM [inhibitor, partial curve, poor fit]"
same,Potency,[8],"inconclusive: 50.1 µM [inhibitor, partial curve, poor fit]"
CC1CCCCC12NC(=O)N(CC(=O)Nc1sc3c(c1C(N)=O)CCC3)C2=O (stereo unspecified),Potency,[1],"inconclusive: 11.2 µM [inhibitor, partial curve, poor fit]"
same,Potency,[2],inactive
same,Potency,[3],inactive
COc1ccc(-c2nc3n(n2)C(=O)CC(c2ccco2)S3)cc1 (stereo unspecified),"activity change, negative = inhibition",[9],inactive: 0.813%
same,Potency,[10],"inconclusive: 10 µM [inhibitor, partial curve]"
same,Potency,[1],inactive
same,Potency,[2],"inconclusive: 12.6 µM [inhibitor, partial curve, poor fit]"
O=S(=O)(O)c1ccc2c(c1)-c1nc-2nc2[nH]c(nc3nc(nc4[nH]c(n1)c1ccc(S(=O)(=O)O)cc41)-c1ccc(S(=O)(=O)O)cc1-3)c1ccc(S(=O)(=O)O)cc21,Potency,[1],active: 0.562 µM
same,Potency,[3],active: 0.141 µM
Cc1c2c(c(O)c3c(O)cccc13)C(=O)O[C@H]2C1C(N(C)C)C(O)=C(C(N)=O)C(=O)[C@H]1O (stereo partly specified),Potency,[1],active: 10 µM
same,Potency,[3],active: 2.24 µM
O=C(O)c1ccc(-n2cccc2/C=C2/NC(=O)N(c3ccccc3)C2=O)cc1,Potency,[1],inactive
same,Potency,[3],active: 12.6 µM
Cc1ccccc1NC(=O)CSc1nnc(-c2ccco2)c(-c2ccco2)n1,Potency,[1],inactive
same,Potency,[3],inactive
O=c1cc2c(=O)oc3cc(O)c(O)oc3c2c(O)c1O,Potency,[1],"inconclusive: 6.31 µM [inhibitor, partial curve]"
same,Potency,[2],active: 0.126 µM
same,Potency,[4],"inconclusive: 0.501 µM [inhibitor, full curve, poor fit]"

# Not a retest: an excerpt of the list.
compound,measurement,setting,value
O=C(c1ccc2nc(-c3ccco3)c(-c3ccco3)nc2c1)N1CCN(c2ncccn2)CC1,Potency,[3],inactive
same,Potency,[6],"inconclusive: 84.9 µM [inhibitor, single point]"
